The target of the assay is hTSHR-ECD-avi-his (human TSHR extracellular region, 6 amino acid mutations) (human). Description: phage library screening and affinity determination.

Consider one molecule from patent EP4775595A1.

These are yes or no findings as the source states them, for the method shown. Some results given as binding are weak or reduced against the parent protein; the word gives no strength.

B1: CB16 (VHH)
VHH: EVQLVESGGGPVQAGGSLRLSCAGPGYTSSCMGWFRQAPGKERTGVAAIYIGGRGTDYADSVKGRFTISQDNAKNTLYLQMNSLKPEDTAMYYCWAGIEYDCYSGHWRDWAFSRERGFWGQGTQVTVSS
Regarding B1, the binding result was “binds”.
